Data on three substances can be found in paper PMC8464605.

Protein sequences, listed by entry. Tags and fused reporters are not part of them.
UniProt Q15910: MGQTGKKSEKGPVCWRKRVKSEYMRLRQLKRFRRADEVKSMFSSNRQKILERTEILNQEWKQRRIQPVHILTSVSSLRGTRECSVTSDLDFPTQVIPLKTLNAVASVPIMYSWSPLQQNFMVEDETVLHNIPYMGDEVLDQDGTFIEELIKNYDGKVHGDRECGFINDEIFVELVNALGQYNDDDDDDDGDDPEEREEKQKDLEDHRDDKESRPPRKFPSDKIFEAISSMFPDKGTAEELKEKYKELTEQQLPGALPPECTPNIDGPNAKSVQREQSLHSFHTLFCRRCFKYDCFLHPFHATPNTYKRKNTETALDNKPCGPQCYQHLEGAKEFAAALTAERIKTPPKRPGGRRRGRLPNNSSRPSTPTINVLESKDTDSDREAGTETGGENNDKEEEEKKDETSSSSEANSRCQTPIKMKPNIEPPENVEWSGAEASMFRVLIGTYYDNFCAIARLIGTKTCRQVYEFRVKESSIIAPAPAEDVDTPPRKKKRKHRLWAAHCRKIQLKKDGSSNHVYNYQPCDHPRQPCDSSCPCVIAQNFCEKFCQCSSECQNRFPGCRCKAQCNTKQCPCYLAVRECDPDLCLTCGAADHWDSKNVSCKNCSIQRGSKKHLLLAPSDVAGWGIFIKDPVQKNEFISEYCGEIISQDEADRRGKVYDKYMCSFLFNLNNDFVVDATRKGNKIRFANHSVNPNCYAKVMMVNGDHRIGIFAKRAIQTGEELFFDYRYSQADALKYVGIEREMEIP
UniProt O14929: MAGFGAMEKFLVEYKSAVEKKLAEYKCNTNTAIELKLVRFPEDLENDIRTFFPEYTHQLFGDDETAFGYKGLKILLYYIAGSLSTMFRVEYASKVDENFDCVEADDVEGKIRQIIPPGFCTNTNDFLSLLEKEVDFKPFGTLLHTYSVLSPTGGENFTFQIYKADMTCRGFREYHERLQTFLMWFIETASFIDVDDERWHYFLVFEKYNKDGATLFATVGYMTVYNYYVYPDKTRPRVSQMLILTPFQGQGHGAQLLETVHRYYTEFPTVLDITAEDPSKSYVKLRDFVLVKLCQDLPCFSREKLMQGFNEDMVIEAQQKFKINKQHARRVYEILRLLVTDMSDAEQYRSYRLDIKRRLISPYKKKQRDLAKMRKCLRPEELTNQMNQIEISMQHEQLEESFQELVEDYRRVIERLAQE
UniProt Q5T4S7: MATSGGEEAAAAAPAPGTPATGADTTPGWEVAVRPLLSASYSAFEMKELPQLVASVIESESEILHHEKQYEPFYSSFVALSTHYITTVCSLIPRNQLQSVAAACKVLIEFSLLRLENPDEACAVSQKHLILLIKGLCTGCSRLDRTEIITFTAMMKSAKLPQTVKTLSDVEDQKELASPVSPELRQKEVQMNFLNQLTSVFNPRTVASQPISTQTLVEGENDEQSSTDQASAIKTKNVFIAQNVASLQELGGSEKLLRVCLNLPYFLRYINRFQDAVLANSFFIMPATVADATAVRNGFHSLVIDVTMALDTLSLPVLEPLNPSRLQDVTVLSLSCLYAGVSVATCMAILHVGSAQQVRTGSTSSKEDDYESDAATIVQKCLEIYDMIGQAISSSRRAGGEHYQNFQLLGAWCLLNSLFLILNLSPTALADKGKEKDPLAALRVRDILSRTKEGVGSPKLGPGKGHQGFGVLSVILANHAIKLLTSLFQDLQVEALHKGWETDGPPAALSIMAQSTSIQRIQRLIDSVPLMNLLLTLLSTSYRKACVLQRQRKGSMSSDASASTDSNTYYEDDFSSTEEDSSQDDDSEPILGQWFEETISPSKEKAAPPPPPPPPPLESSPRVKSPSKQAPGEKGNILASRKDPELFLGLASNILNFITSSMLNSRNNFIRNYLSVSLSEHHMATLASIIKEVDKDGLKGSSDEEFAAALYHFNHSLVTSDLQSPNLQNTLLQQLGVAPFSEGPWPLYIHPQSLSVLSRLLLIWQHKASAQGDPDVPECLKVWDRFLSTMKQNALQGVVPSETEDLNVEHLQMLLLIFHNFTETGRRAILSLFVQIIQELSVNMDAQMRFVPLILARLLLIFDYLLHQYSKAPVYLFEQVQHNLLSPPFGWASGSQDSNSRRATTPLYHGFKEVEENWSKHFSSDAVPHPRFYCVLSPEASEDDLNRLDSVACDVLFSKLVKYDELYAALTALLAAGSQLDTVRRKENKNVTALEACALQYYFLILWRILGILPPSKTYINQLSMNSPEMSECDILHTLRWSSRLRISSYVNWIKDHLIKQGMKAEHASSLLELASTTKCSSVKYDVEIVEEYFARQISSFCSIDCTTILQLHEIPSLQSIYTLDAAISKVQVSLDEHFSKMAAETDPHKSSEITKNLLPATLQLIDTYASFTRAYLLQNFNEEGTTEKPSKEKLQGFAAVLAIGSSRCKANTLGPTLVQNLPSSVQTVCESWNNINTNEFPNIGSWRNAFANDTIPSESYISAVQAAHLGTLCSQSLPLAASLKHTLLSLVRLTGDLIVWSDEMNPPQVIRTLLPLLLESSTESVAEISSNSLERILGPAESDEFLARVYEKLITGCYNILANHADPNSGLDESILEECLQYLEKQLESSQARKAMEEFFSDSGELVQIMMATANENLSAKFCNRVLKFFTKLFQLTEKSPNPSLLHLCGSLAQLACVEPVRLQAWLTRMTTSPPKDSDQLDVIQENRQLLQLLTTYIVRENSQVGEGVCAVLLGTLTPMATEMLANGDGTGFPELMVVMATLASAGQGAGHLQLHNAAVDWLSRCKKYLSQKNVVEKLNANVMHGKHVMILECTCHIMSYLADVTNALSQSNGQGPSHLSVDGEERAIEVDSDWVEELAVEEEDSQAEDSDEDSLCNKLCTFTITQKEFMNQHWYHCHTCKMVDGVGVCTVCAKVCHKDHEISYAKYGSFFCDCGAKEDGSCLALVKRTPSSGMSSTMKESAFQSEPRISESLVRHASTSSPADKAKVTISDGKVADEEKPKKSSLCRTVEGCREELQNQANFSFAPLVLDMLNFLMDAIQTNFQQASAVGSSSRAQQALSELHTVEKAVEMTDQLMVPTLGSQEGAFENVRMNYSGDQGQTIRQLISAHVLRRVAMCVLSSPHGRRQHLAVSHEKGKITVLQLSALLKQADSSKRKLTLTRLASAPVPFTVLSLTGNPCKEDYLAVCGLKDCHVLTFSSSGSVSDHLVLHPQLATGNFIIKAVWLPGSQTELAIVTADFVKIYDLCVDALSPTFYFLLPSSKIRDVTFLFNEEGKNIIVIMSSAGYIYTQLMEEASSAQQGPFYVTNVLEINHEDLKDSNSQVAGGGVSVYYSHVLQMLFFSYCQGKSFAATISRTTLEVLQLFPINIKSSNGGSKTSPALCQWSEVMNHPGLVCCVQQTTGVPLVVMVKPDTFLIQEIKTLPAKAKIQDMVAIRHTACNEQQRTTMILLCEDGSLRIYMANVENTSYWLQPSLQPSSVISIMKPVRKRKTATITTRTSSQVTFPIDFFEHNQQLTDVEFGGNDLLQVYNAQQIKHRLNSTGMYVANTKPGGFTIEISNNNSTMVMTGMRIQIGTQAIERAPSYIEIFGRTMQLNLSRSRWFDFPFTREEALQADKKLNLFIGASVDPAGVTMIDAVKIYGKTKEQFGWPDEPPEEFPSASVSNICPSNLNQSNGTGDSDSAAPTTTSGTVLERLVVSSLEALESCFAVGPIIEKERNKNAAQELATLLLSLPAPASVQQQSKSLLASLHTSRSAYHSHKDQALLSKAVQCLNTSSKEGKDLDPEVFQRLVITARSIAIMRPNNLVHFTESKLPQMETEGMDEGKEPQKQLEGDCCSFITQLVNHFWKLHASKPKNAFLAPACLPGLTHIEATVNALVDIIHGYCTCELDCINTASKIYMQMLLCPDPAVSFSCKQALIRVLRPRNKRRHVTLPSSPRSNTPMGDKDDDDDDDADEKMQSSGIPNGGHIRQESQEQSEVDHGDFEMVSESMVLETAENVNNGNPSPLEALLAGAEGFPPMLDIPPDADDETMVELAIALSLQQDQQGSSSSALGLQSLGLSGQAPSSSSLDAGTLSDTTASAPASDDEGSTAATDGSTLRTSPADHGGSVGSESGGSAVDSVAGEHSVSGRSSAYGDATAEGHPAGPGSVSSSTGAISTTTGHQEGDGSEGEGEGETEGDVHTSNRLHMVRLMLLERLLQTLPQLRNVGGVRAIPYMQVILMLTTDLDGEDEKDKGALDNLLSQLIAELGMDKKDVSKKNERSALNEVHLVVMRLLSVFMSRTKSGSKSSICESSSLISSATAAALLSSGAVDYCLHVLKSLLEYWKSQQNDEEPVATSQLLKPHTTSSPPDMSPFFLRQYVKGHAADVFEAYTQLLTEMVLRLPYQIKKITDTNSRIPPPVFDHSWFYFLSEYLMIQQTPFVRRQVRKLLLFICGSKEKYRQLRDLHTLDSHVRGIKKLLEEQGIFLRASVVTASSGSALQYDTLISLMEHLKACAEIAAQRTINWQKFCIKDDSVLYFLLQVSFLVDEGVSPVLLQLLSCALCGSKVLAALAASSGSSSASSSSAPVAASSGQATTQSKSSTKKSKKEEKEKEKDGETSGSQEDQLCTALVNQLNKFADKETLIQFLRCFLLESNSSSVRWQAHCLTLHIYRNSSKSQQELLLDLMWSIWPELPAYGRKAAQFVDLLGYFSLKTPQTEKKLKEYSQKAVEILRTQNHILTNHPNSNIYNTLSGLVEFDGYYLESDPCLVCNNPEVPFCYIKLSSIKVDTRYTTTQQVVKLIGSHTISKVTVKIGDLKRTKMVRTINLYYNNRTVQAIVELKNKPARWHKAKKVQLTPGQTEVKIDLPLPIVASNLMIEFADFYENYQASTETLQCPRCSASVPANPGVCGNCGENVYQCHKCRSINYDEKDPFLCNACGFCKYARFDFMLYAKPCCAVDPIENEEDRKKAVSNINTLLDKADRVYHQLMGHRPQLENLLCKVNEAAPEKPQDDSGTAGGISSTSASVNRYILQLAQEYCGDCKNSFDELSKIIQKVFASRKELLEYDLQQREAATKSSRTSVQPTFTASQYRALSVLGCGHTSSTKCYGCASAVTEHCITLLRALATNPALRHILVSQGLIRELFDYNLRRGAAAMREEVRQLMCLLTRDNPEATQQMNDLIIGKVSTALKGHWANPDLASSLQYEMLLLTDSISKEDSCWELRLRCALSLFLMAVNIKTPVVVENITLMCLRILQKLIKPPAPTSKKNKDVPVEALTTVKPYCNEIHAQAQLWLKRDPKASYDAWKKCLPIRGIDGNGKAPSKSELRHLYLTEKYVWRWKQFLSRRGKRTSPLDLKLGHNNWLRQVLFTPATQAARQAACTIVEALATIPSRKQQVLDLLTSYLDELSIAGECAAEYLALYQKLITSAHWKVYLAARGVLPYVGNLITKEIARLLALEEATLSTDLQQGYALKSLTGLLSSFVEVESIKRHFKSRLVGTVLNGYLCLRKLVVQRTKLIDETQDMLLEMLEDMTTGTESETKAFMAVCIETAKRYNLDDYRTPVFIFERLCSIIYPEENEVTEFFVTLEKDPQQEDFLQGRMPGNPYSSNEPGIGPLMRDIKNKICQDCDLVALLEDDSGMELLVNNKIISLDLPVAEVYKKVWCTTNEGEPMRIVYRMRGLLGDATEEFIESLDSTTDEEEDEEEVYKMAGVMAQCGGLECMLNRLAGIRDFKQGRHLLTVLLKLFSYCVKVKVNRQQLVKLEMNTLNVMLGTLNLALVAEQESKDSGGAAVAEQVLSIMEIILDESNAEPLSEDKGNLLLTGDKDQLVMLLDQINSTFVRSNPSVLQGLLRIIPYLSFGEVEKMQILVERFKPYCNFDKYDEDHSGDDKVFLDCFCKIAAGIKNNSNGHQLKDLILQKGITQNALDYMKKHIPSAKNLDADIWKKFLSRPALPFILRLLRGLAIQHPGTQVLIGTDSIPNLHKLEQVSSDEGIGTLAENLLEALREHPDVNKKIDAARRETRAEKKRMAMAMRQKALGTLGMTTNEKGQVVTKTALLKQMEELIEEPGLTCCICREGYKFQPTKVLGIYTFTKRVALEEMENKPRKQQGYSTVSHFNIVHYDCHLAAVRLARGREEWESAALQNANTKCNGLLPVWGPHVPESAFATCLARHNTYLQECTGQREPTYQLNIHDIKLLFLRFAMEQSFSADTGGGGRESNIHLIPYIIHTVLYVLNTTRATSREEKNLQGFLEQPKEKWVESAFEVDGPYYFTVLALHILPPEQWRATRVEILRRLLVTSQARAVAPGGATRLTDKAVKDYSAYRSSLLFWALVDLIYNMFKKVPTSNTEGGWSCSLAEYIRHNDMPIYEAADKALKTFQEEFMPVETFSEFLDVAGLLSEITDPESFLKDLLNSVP

The target in assay [1] is EZH2, exogenously expressed (UniProt Q15910). Put plainly: co-IP; exogenously expressed proteins in pancreatic cancer cell lines (Fig. S5e); western/IP lysis buffer, protein A/G agarose beads.
The target in assay [2] is enhancer of zeste 2 polycomb repressive complex 2 subunit (EZH2), endogenous (human (endogenous in PANC-1, BxPC-3, MIA-PaCa-2)) (UniProt Q15910). In words: co-IP; EZH2 immunoprecipitated from PANC-1 lysate, UBR4 detected by western blot; cells infected with control shRNA or HAT1-specific shRNAs, HAT1 overexpressed or restored.
Assay [3] shares this target. In words: co-IP; endogenous proteins, reciprocal immunoprecipitation with anti-HAT1 and anti-EZH2 from lysates of PANC-1, BxPC-3 and MIA-PaCa-2 cells; western/IP lysis buffer, protein A/G agarose beads, overnight at 4 °C.
The target in assay [4] is whole-length GST-EZH2 recombinant protein (UniProt Q15910). In words: pull-down; GST fusion proteins immobilised on glutathione-sepharose beads, incubated 4 h with PANC-1 lysate (20 mmol/L Tris-HCl pH 7.5, 150 mmol/L NaCl, 0.1% Nonidet P40, 1 mmol/L DTT, 10% glycerol, 1 mmol/L EDTA, 2.5 mmol/L MgCl2); HAT1 detected by western blot; only the target purified. On the technique in general: Immunoblotting shows a protein as a band on a membrane.

No constants are given. Whether binding was seen depends on the method and setting. Binding seen in cells or lysates may run through a third protein. Some binding calls cover weakened binding; strength is not graded here.

“HAT1, exogenously expressed (from UniProt O14929 1-419)”: the binding entry in assay [1] was “binds”. Consider “ubiquitin protein ligase E3 component n-recognin 4 (UBR4), endogenous (from UniProt Q5T4S7 1-5183)”, for which the binding result in assay [2] is “binds”. In the case of “histone acetyltransferase 1 (HAT1), endogenous (from UniProt O14929 1-419)”, the binding result in assay [3] and in assay [4] was “binds” in each case.
